According to US20220386609A1, “META-DIAMIDE INSECTICIDES” (FMC Corporation, priority 2019, published 2022):
Some results were stated once for a whole list of compounds, not compound by compound.

Experiments:
Type in all cases: in vivo
[1] = system: diamondback moth (Plutella xylostella (L.)); assay: Test A: control of diamondback moth on mustard plant, foliar spray; conditions: neonate larvae, 6 days, criterion is feeding damage bound and/or 100% mortality
[2] = system: fall armyworm (Spodoptera frugiperda (J. E. Smith)); assay: Test B: control of fall armyworm on corn plant, foliar spray; conditions: 1-day-old larvae, 6 days, criterion is feeding damage bound and/or 100% mortality
[3] = system: Western Flower Thrips (Frankliniellla occidentalis (Pergande)); assay: Test H: control of Western Flower Thrips through contact and/or systemic means; conditions: tested at 250 ppm; Soleil bean plant, adults and nymphs, 6 days; criterion is plant damage bound and/or 100% mortality

Structure (SMILES) | control efficacy: feeding damage (40% or less feeding damage and/or 100% mortality) ([1]; tested at 10 ppm) [%] | control efficacy: feeding damage (40% or less feeding damage and/or 100% mortality) ([1]; tested at 50 ppm) [%] | control efficacy: feeding damage (40% or less feeding damage and/or 100% mortality) ([2]; tested at 50 ppm) [%] | control efficacy: feeding damage (40% or less feeding damage and/or 100% mortality) ([2]; tested at 250 ppm) [%] | control efficacy: feeding damage (40% or less feeding damage and/or 100% mortality) ([1]; tested at 250 ppm) [%] | control efficacy: feeding damage (40% or less feeding damage and/or 100% mortality) ([2]; tested at 10 ppm) [%] | control efficacy: plant damage (30% or less plant damage and/or 100% mortality) [3] [%]
O=C(CC(c1ccc(Cl)c(Cl)c1)C(F)(F)F)Nc1ccc(Cl)c(C(=O)Nc2ccc(F)cn2)c1 (stereo not shown) [Compound 53] | ≤ 40 | ≤ 40 | ≤ 40 | ≤ 40 |  |  | 
O=C(CC(c1cc(Cl)cc(Cl)c1)C(F)(F)F)Nc1ccc(Cl)c(C(=O)Nc2ccc(F)cn2)c1 (stereo not shown) [Compound 54] | ≤ 40 | ≤ 40 | ≤ 40 | ≤ 40 |  |  | 
O=C(CC(c1cc(Cl)cc(Cl)c1)C(F)(F)F)Nc1ccc(Cl)c(C(=O)Nc2ccc(Cl)cn2)c1 (stereo not shown) [Compound 55] |  | ≤ 40 | ≤ 40 | ≤ 40 |  |  | 
O=C(CC(c1cc(F)cc(F)c1)C(F)(F)F)Nc1ccc(Cl)c(C(=O)Nc2ccc(F)cc2F)c1 (stereo not shown) [Compound 61] | ≤ 40 | ≤ 40 | ≤ 40 | ≤ 40 | ≤ 40 |  | 
O=C(CC(c1cc(Cl)cc(Cl)c1)C(F)(F)F)Nc1ccc(Cl)c(C(=O)Nc2ccc(F)nc2F)c1 (stereo not shown) [Compound 63] | ≤ 40 | ≤ 40 | ≤ 40 | ≤ 40 | ≤ 40 | ≤ 40 | 
O=C(CC(c1cc(F)cc(F)c1)C(F)(F)F)Nc1ccc(Cl)c(C(=O)Nc2ccc(F)nc2F)c1 (stereo not shown) [Compound 65] |  | ≤ 40 |  | ≤ 40 | ≤ 40 |  | 
O=C(CC(c1cc(Cl)cc(Cl)c1)C(F)(F)F)Nc1ccc(Cl)c(C(=O)NCC2CC2)c1 (stereo not shown) [Compound 75] |  |  |  |  |  |  | ≤ 30
O=C(CC(c1cccc(C(F)(F)F)c1)C(F)(F)F)Nc1ccc(Cl)c(C(=O)Nc2ccc(F)nc2F)c1 (stereo not shown) [Compound 78] | ≤ 40 | ≤ 40 | ≤ 40 |  |  | ≤ 40 | 
O=C(CC(c1cccc(C(F)(F)F)c1)C(F)(F)F)Nc1ccc(Cl)c(C(=O)Nc2ccc(F)cc2)c1 (stereo not shown) [Compound 79] | ≤ 40 | ≤ 40 | ≤ 40 |  |  | ≤ 40 | 
O=C(CC(c1cccc(C(F)(F)F)c1)C(F)(F)F)Nc1ccc(Cl)c(C(=O)Nc2ccccc2F)c1 (stereo not shown) [Compound 80] | ≤ 40 | ≤ 40 | ≤ 40 |  |  |  | 
O=C(CC(c1cccc(C(F)(F)F)c1)C(F)(F)F)Nc1ccc(Cl)c(C(=O)Nc2ccc(Cl)nc2)c1 (stereo not shown) [Compound 84] |  | ≤ 40 | ≤ 40 |  |  |  | 
O=C(CC(c1cccc(C(F)(F)F)c1)C(F)(F)F)Nc1ccc(F)c(C(=O)Nc2ccc(F)cc2Cl)c1 (stereo not shown) [Compound 88] |  | ≤ 40 | ≤ 40 |  |  |  | 
O=C(CC(c1cccc(C(F)(F)F)c1)C(F)(F)F)Nc1ccc(F)c(C(=O)Nc2ccc(F)nc2F)c1 (stereo not shown) [Compound 89] | ≤ 40 | ≤ 40 | ≤ 40 |  |  |  | 
O=C(CC(c1ccc(Cl)c(Cl)c1)C(F)(F)F)Nc1ccc(F)c(C(=O)Nc2ccc(F)cc2F)c1 (stereo not shown) [Compound 90] | ≤ 40 | ≤ 40 | ≤ 40 | ≤ 40 | ≤ 40 |  | 
O=C(CC(c1cc(Cl)c(F)c(Cl)c1)C(F)(F)F)Nc1ccc(Cl)c(C(=O)Nc2ccc(F)cc2)c1 (stereo not shown) [Compound 113] | ≤ 40 | ≤ 40 | ≤ 40 |  |  | ≤ 40 | 
O=C(CC(c1cc(Cl)c(F)c(Cl)c1)C(F)(F)F)Nc1ccc(Cl)c(C(=O)Nc2ccccc2F)c1 (stereo not shown) [Compound 114] | ≤ 40 | ≤ 40 | ≤ 40 |  |  |  | 
O=C(CC(c1cc(Cl)cc(Cl)c1)C(F)(F)F)Nc1ccc(C(F)(F)F)c(C(=O)Nc2ccc(F)cc2F)c1 (stereo not shown) [Compound 123] | ≤ 40 | ≤ 40 | ≤ 40 |  | ≤ 40 | ≤ 40 | 
O=C(CC(c1cc(Cl)cc(Cl)c1)C(F)(F)F)Nc1ccc(C(F)(F)F)c(C(=O)Nc2ccc(F)cc2)c1 (stereo not shown) [Compound 124] | ≤ 40 | ≤ 40 | ≤ 40 |  |  | ≤ 40 | 
O=C(CC(c1cc(Cl)cc(Cl)c1)C(F)(F)F)Nc1ccc(C(F)(F)F)c(C(=O)Nc2c(F)ccnc2F)c1 (stereo not shown) [Compound 128] | ≤ 40 | ≤ 40 | ≤ 40 |  |  | ≤ 40 | 
O=C(CC(c1cc(Cl)cc(Cl)c1)C(F)(F)F)Nc1ccc(C(F)(F)F)c(C(=O)Nc2ccc(F)c(F)c2)c1 (stereo not shown) [Compound 129] | ≤ 40 | ≤ 40 | ≤ 40 |  |  |  | 
N#Cc1ccc(NC(=O)c2cc(NC(=O)CC(c3cc(Cl)cc(Cl)c3)C(F)(F)F)ccc2C(F)(F)F)cc1 (stereo not shown) [Compound 132] | ≤ 40 | ≤ 40 | ≤ 40 |  |  |  | 
O=C(CC(c1cccc(C(F)(F)F)c1)C(F)(F)F)Nc1ccc(C(F)(F)F)c(C(=O)Nc2ccc(F)cc2)c1 (stereo not shown) [Compound 133] | ≤ 40 | ≤ 40 | ≤ 40 |  |  |  | 
O=C(CC(c1cccc(C(F)(F)F)c1)C(F)(F)F)Nc1ccc(C(F)(F)F)c(C(=O)Nc2ccccc2F)c1 (stereo not shown) [Compound 134] | ≤ 40 | ≤ 40 | ≤ 40 |  |  |  | 
O=C(CC(c1cccc(C(F)(F)F)c1)C(F)(F)F)Nc1ccc(C(F)(F)F)c(C(=O)Nc2ccc(F)c(F)c2)c1 (stereo not shown) [Compound 136] |  | ≤ 40 | ≤ 40 |  |  |  | 
N#Cc1ccc(NC(=O)c2cc(NC(=O)CC(c3cccc(C(F)(F)F)c3)C(F)(F)F)ccc2C(F)(F)F)cc1 (stereo not shown) [Compound 140] | ≤ 40 | ≤ 40 | ≤ 40 |  |  |  | 
O=C(CC(c1cccc(C(F)(F)F)c1)C(F)(F)F)Nc1ccc(C(F)(F)F)c(C(=O)Nc2c(F)ccnc2F)c1 (stereo not shown) [Compound 141] | ≤ 40 | ≤ 40 | ≤ 40 |  |  |  | 
O=C(CC(O)(c1cc(Cl)cc(Cl)c1)C(F)(F)F)Nc1ccc(Cl)c(C(=O)Nc2ccc(F)cc2F)c1 (stereo not shown) [Compound 149] | ≤ 40 | ≤ 40 | ≤ 40 |  |  |  | 
O=C(Nc1ccc(F)c(C(=O)Nc2ccc(F)cc2F)c1)NC(c1cccc(C(F)(F)F)c1)C(F)(F)F (stereo not shown) [Compound 152] |  | ≤ 40 | ≤ 40 |  |  |  | 
O=C(Nc1ccc(F)c(C(=O)Nc2ccc(F)cc2F)c1)NC(c1cc(Cl)cc(Cl)c1)C(F)(F)F (stereo not shown) [Compound 153] |  | ≤ 40 | ≤ 40 |  |  | ≤ 40 | 
